Assay results: patent US8835485B2, “Prevention and treatment of sarcopenia” (PsiOxus Therapeutics Limited, priority 2009, dated 2014)

Assays:
[1] = tested on: Young, healthy, male Wistar Han rats; assay: S-Pindolol in young healthy rats, 16 days: body weight, lean mass, organ weights; assay type: in vivo, rat; details: gavage; for Spleen organ weight at the end of the study: placebo 639 ± 19; for Liver organ weight at the end of the study: placebo 10454 ± 287
Experimental: Young, healthy, male Wistar Han rats (201.8±2.4 g) were housed in groups of two to three per cage under standard conditions. Animals were randomized to receive either 0.3 mg S-Pindolol/kg/d (n=5), 3 mg S-Pindolol/kg/d (n=5) or placebo (n=16) once daily per gavage for 16 days. Body composition (lean mass) of the animals was analyzed using the EchoMRI-700 system (Echo Medical Systems, Houston, Tex., USA) before treatment and at the end of the study. Body weight was recorded before treatment and at the end of study. Organ weights were recorded at the end of study.

[2] = tested on: Old, healthy, male Wistar Han rats; assay: S-Pindolol in old (19 month) rats, 28 days: body weight, lean mass, organ weights; assay type: in vivo, rat; details: 3 mg/kg/d
Experimental: Old, healthy, male Wistar Han rats (age 19 month, at the start of the experiment) were housed in groups of two to three per cage under standard laboratory conditions. Animals were randomized to receive either 3 mg/kg/d S-Pindolol/kg/d (n=8), or placebo (n=14) once daily per gavage for 28 days. Body composition (lean mass) of the animals was analyzed using the EchoMRI-700 system (Echo Medical Systems, Houston, Tex., USA) before treatment, once per week during the study and at the end of the study. Body weight was recorded before treatment, once per week during the study and at the end of study. Organ weights were recorded at the end of study. One tibialis muscle per animals was dried at 60° C. for 48 h.

## CC(C)NC[C@H](O)COc1cccc2[nH]ccc12 [S-Pindolol, S-(−)-1-(1H-indol-4-yloxy)-3-(1-methylethylamino)propan-2-ol]
[1]; 0.3 mg/kg/d
  Spleen organ weight at the end of the study: 634 ± 14 mg
  Liver organ weight at the end of the study: 10156 ± 265 mg
[1]; 3 mg/kg/d
  Spleen organ weight at the end of the study: 622 ± 37 mg
  Liver organ weight at the end of the study: 10568 ± 410 mg
[2]; placebo 13.68 ± 0.74
  Liver organ weight at the end of the study: 13.98 ± 0.76 g
[2]; placebo 924 ± 46
  Spleen organ weight at the end of the study: 1045 ± 84 mg
